Assay results from US12730111B2, “Systems, methods, and compositions to identify new protein targets of a chemical compound or its derivatives” (priority 2019, dated 2026).

Test system: HeLa cells
Test: Anti-PVS immunoprecipitation and proteomic identification of tagged proteins in HeLa cells
Settings: 1 mM for 30 min

SMILES | number of target proteins tagged both by PVS and PVSN | number of target proteins tagged by this compound only
C=CS(=O)(=O)c1ccccc1 [PVS, Phenyl vinyl sulfone] | 103 | 70
C=CS(=O)(=O)Oc1ccccc1 [PVSN, phenyl vinyl sulfonate] | 103 | 10
